What all share (assay): log2 fold change, soluble protein after heating vs DMSO (PISA); higher = thermal stabilisation; K562 cells, 10 uM, 30 min; active = over 0.2 and 3.5 SD of the protein, either way, in both replicates (recomputed)
Compound in one assay: Cc1ccc(NC(=O)c2ccc(CN3CC[C@H](N(C)C)C3)c(C(F)(F)F)c2)cc1Nc1nccc(-c2cncnc2)n1 [bafetinib]
An outline of the steps:
(§1)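 Aliquots of K562 cells (2×10^6 cells/mL) treated with 10 μM compound for 30 min were heated for 3 min over 48°C-58°C. After pooling and extraction in PBS with 0.5% NP-40 at 4°C, soluble protein from a 21,000xg, 90 min spin was quantified by TMTpro 16plex LC-MS/MS with channel sums equalised. Thermal stability is expressed against control samples, from duplicates, as a log2 fold change.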

The chains behind the UniProt entries cited, without tags or fusion partners. Where a name states a change or a piece, a line headed by the entry shows the natural chain unless it says otherwise.
UniProt Q9BX40: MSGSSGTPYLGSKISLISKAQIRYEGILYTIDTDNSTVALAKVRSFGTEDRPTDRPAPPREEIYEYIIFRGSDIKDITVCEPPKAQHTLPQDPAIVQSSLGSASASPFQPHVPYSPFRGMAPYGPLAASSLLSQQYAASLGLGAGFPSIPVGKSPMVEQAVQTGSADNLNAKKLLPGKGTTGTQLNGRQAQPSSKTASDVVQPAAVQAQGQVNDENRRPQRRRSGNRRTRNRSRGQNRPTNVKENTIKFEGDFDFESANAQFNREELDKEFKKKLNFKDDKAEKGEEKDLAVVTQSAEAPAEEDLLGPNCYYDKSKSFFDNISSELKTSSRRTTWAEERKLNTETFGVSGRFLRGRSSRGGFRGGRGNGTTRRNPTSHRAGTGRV
UniProt Q66K74: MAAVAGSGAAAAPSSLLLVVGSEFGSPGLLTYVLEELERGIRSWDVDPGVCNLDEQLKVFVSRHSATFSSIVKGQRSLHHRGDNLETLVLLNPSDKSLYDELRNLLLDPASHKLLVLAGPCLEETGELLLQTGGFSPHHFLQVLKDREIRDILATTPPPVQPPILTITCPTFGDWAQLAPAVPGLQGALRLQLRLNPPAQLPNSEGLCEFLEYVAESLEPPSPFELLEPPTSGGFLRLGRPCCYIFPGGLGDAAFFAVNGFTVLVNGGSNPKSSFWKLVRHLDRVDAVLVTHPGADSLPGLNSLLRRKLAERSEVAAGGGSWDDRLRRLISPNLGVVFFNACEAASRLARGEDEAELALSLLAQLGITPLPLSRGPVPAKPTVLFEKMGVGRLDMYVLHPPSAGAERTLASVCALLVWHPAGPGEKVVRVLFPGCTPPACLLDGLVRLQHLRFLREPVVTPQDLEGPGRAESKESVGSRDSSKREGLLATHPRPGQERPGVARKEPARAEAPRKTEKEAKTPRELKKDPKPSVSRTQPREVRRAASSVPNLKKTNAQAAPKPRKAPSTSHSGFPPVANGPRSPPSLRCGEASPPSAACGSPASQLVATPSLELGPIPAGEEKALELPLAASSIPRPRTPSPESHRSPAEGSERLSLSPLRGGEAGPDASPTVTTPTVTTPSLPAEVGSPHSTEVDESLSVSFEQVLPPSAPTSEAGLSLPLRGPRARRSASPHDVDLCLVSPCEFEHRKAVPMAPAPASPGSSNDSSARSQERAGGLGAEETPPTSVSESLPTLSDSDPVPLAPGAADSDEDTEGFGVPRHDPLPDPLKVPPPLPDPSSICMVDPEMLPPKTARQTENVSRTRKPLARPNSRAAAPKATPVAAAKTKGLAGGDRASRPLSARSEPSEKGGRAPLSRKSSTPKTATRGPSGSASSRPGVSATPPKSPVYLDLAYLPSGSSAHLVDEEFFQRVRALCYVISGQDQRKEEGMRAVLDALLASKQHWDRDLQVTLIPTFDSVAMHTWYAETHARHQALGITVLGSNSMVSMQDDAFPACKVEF
UniProt Q13257, whole entry, looked up: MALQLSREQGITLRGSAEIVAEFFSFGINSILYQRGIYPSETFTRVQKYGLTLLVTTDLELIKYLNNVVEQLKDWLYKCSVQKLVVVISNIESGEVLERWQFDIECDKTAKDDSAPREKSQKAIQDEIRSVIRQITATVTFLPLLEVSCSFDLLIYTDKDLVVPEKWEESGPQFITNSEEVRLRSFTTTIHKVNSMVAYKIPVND
UniProt P02788: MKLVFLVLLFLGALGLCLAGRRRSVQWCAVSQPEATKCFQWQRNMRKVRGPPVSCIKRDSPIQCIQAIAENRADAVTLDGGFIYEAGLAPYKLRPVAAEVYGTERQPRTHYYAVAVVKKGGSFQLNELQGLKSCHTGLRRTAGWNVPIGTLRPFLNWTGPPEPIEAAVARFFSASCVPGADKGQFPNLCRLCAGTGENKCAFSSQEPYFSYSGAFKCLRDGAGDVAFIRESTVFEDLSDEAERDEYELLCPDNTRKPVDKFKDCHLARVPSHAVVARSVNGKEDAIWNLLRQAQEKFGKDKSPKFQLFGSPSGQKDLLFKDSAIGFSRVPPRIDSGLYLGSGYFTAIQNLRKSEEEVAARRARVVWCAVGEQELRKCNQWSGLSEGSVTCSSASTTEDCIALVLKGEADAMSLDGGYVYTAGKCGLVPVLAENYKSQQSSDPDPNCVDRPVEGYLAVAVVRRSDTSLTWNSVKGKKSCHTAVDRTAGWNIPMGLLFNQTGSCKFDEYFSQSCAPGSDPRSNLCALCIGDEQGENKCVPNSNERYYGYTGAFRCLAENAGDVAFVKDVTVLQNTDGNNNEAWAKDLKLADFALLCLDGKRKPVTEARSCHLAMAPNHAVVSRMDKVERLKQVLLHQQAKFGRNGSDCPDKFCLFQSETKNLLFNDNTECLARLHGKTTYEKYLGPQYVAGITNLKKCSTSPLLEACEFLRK
UniProt P46734: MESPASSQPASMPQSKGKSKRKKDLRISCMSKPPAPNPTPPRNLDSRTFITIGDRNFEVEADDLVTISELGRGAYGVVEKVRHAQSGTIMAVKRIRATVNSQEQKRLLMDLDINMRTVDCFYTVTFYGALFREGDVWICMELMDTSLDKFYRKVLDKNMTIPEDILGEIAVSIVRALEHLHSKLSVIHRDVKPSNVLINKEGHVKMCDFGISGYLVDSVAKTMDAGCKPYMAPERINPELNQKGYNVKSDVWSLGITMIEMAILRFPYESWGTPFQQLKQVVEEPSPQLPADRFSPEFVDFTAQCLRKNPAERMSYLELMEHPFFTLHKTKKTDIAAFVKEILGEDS
UniProt O00462: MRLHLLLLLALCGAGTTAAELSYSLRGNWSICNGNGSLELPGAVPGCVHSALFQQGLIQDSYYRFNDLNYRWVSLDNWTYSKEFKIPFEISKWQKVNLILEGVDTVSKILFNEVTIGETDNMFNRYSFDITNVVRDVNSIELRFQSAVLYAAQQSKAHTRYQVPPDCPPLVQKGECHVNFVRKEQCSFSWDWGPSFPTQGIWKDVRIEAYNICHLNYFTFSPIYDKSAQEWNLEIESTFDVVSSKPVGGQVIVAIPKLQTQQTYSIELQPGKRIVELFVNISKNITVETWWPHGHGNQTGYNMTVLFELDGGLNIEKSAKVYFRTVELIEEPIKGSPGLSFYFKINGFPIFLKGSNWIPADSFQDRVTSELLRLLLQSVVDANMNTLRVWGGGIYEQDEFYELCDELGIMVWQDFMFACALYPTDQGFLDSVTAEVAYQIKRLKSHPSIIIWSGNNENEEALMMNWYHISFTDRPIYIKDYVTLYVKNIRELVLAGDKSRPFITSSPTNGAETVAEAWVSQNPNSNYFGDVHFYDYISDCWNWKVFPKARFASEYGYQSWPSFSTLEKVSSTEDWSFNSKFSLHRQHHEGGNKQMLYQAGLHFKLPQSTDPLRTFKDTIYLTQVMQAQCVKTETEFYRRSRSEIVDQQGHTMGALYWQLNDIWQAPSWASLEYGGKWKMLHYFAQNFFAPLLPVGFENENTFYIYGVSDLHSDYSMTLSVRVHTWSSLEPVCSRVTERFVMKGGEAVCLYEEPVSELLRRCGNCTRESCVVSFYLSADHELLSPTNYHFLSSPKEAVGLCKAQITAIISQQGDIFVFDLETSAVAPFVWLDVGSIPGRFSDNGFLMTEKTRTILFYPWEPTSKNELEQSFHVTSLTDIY
UniProt Q9UPY8, whole entry, looked up: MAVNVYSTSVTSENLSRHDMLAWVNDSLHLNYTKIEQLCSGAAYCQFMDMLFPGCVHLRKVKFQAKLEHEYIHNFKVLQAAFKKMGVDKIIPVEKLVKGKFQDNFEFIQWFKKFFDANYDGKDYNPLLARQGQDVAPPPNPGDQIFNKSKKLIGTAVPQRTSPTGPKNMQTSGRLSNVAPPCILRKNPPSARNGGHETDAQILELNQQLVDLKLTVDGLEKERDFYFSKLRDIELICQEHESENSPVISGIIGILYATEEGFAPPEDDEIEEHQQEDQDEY
UniProt Q9NX47: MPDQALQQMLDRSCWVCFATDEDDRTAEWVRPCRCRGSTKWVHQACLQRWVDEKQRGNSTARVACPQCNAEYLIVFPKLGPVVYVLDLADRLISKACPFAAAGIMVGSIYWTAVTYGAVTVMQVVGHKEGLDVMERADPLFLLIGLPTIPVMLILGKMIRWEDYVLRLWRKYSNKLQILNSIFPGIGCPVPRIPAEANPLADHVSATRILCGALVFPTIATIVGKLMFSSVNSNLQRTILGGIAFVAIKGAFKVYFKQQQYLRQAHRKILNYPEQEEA
UniProt Q9UBF1: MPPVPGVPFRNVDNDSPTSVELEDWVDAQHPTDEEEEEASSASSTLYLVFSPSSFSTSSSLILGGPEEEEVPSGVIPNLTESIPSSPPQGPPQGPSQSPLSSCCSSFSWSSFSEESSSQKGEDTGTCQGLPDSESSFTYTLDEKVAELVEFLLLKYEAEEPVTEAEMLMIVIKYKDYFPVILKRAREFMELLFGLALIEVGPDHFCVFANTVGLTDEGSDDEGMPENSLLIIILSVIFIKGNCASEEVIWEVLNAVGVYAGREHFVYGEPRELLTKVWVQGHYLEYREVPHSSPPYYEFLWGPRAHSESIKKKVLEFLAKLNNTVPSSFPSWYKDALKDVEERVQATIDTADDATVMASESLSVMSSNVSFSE
UniProt Q86X29: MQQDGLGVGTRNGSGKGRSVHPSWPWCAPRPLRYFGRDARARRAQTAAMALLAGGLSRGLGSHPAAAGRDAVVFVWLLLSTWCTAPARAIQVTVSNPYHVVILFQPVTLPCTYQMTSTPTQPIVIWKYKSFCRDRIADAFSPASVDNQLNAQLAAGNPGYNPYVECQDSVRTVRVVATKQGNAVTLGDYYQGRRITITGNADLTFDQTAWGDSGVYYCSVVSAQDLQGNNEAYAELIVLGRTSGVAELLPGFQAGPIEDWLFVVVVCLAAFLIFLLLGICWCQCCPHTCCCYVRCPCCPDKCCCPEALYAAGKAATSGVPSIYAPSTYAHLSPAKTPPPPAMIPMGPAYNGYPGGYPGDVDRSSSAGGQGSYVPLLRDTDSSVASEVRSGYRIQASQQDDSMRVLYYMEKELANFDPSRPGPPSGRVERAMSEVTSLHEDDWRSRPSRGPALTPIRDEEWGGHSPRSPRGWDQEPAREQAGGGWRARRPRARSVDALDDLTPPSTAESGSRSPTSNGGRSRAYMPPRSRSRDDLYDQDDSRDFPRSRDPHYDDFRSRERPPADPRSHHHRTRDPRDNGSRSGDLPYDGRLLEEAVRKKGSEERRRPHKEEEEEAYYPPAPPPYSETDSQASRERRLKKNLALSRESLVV

Compound in assay [1]: Cc1cccc(CC(=O)N2CCc3c2ccc(-c2cn(C)c4ncnc(N)c24)c3F)n1
An outline of the steps:
as §1

Compound in a further assay: Cc1cn(-c2cc(NC(=O)c3ccc(C)c(Nc4nccc(-c5cccnc5)n4)c3)cc(C(F)(F)F)c2)cn1 [nilotinib]
An outline of the steps: as §1

Compound in assay [2]: Cc1nc(Nc2n[nH]c3c2CN(C(=O)N[C@H](CN(C)C)c2ccccc2)C3(C)C)c2sccc2n1
An outline of the steps:
as §1

Compound in a further assay: Cc1nc(Nc2ncc(C(=O)Nc3c(C)cccc3Cl)s2)cc(N2CCN(CCO)CC2)n1 [dasatinib]
An outline of the steps: as §1

Compound in assay [3]: Cc1ncc(-c2ccnc(Nc3ccc(S(C)(=O)=O)cc3)n2)n1C(C)C
An outline of the steps:
as §1

Compound in assay [4]: Cn1cc(-c2ccc3c(c2)CCN3C(=O)Cc2cccc(C(F)(F)F)c2)c2c(N)ncnc21
The procedure, abridged: as §1

Compound in assay [5]: Cn1cc(-c2ccc3nnc(C(F)(F)c4ccc5ncccc5c4)n3n2)cn1
The procedure, abridged: as §1

Compound in another assay: Cn1cncc1[C@@](N)(c1ccc(Cl)cc1)c1ccc2c(c1)c(-c1cccc(Cl)c1)cc(=O)n2C [tipifarnib]
An outline of the steps:
as §1

Compound in the next assay: FC(F)(F)c1ccc(/C=C/c2nc(COc3ccc(CCCCn4ccnn4)cc3)co2)cc1 [mubritinib]
The procedure, abridged:
as §1

The list shows a part of the results.

log2 fold change data for 13 targets are collected here from the supplement of paper PMC10849652.

On to LSM14B (UniProt Q9BX40), for which the log2 fold change in the assay with bafetinib is inactive: 0.076; in assay [1], inactive: 0.06; with nilotinib, inactive: -0.073; in assay [2], inactive: -0.109; with dasatinib, inactive: -0.04; in [3], inactive: 0.05. Further, the log2 fold change in assay [4] is inactive: -0.049; in [5], inactive: -0.055; with tipifarnib it was inactive: -0.021; with mubritinib, inactive: 0.096.

As for MAP1S (UniProt Q66K74), the log2 fold change with bafetinib is inactive: 0.017; in assay [1] it was inactive: 0.012; with nilotinib it was inactive: -0.032; in [2], inactive: 0.032; with dasatinib it was inactive: -0.104; in assay [3], inactive: 0.042. The log2 fold change was inactive: -0.006 in assay [4], inactive: -0.013 in assay [5], inactive: -0.087 in the assay with tipifarnib and inactive: 0.021 with mubritinib.

Turning to MAD2L1 (UniProt Q13257), the log2 fold change with bafetinib was inactive: -0.054; in assay [1], inactive: 0.018; in the assay with nilotinib, inactive: -0.082; in assay [2], inactive: -0.042; with dasatinib, inactive: -0.06; in assay [3], inactive: -0.012. Moreover, the log2 fold change in assay [4] was inactive: -0.001; in [5], inactive: 0.009; with tipifarnib, inactive: -0.055; in the assay with mubritinib, inactive: 0.042.

On to LTF (UniProt P02788), for which the log2 fold change with bafetinib is inactive: 0.437; in [1], inactive: -0.029; in the assay with nilotinib, inactive: 0.043; in assay [2], inactive: -0.008; with dasatinib it was inactive: 0.05; in [3], inactive: 0.451. For the same target, the log2 fold change in [4] is inactive: 0.116; in [5], inactive: -0.038; with tipifarnib, inactive: 0.015; with mubritinib, inactive: -0.26.

For the target MAP2K3 isoform 3 (UniProt P46734), the log2 fold change with bafetinib was inactive: -0.071; in assay [1], inactive: 0.096; with nilotinib, inactive: -0.019; in [2], inactive: 0.021; with dasatinib, inactive: -0.04; in assay [3], inactive: -0.049. In addition, the log2 fold change in assay [4] is inactive: 0.005; in assay [5] it was inactive: -0.083; with tipifarnib it was inactive: 0.08; with mubritinib, inactive: -0.145.

Turning to MANBA (UniProt O00462), the log2 fold change is inactive: -0.104 in the assay with bafetinib; inactive: 0.015 in [1]; inactive: 0.003 with nilotinib; inactive: 0.026 in assay [2]; inactive: 0.068 with dasatinib; inactive: -0.017 in assay [3]. Besides, the log2 fold change in assay [4] was inactive: 0.018; in [5], inactive: -0.041; in the assay with tipifarnib, inactive: 0.054; with mubritinib, inactive: 0.064.

With MAPK9 (UniProt P45984), the log2 fold change was inactive: -0.112 with bafetinib; inactive: 0.003 in assay [1]; inactive: -0.023 with nilotinib; inactive: 0.047 in assay [2]; inactive: -0.044 in the assay with dasatinib; inactive: 0.134 in [3]. Besides, the log2 fold change in [4] was inactive: 0.042; in [5], inactive: 0.04; in the assay with tipifarnib it was inactive: 0.015; with mubritinib, inactive: -0.059.

For the target MAPRE3 (UniProt Q9UPY8), the log2 fold change was inactive: -0.037 with bafetinib; inactive: 0.038 in assay [1]; inactive: -0.012 with nilotinib; inactive: -0.038 in assay [2]; inactive: -0.042 in the assay with dasatinib; inactive: 0.021 in [3]. Also, the log2 fold change in [4] is inactive: -0.041; in assay [5] it was inactive: 0.061; with tipifarnib, inactive: -0.037; with mubritinib, inactive: 0.027.

Turning to MAK16 (UniProt Q9BXY0), the log2 fold change was inactive: 0.125 with bafetinib; inactive: -0.031 in assay [1]; inactive: 0.02 with nilotinib; inactive: 0.107 in assay [2]; inactive: 0.187 with dasatinib; inactive: 0.015 in assay [3]. Besides, the log2 fold change is inactive: -0.093 in assay [4], inactive: -0.049 in [5], inactive: -0.001 in the assay with tipifarnib and inactive: -0.031 in the assay with mubritinib.

As to MARCHF5 (UniProt Q9NX47), the log2 fold change in the assay with bafetinib is inactive: -0.04; in assay [1], inactive: -0.028; in the assay with nilotinib it was inactive: 0.031; in [2] it was inactive: 0.032; with dasatinib it was inactive: 0.034; in assay [3], inactive: -0.017. Further, the log2 fold change in [4] is inactive: 0.007; in assay [5], inactive: 0.008; with tipifarnib, inactive: 0.03; with mubritinib, inactive: -0.041.

In the case of MAGEC2 (UniProt Q9UBF1), the log2 fold change was inactive: -0.024 with bafetinib; inactive: -0.065 in assay [1]; inactive: -0.02 with nilotinib; inactive: 0.021 in assay [2]; inactive: 0.059 with dasatinib; inactive: 0 in [3]. Moreover, the log2 fold change in [4] is inactive: -0.056; in assay [5] it was inactive: -0.07; with tipifarnib, inactive: -0.02; in the assay with mubritinib, inactive: -0.015.

LSR (UniProt Q86X29): the log2 fold change with bafetinib was inactive: 0.068; in assay [1] it was inactive: -0.057; in the assay with nilotinib it was inactive: 0.024; in [2] it was active: -0.254; with dasatinib, inactive: 0.003; in assay [3], inactive: 0.009. Moreover, the log2 fold change in [4] is inactive: 0.072; in assay [5] it was inactive: 0.018; with tipifarnib, inactive: 0.011; with mubritinib, inactive: 0.01.

Take MACF1 (UniProt H3BQK9): the log2 fold change was inactive: 0.222 with bafetinib; inactive: -0.078 in assay [1]; inactive: 0.078 in the assay with nilotinib; inactive: -0.157 in [2]; inactive: -0.126 with dasatinib; inactive: -0.062 in [3]. Further, the log2 fold change was inactive: -0.076 in assay [4], inactive: 0.011 in assay [5], inactive: 0.148 with tipifarnib and inactive: -0.026 with mubritinib.
